Patent US20150284743A1, “METHODS FOR THE ENZYMATIC PRODUCTION OF ISOPRENE FROM ISOPRENOL” (GLOBAL BIOENERGIES, priority 2012, published 2015)
At least one read-out could not be matched to a standard name with certainty.

Assays:
[1] = Isoprenol phosphorylation, ADP release by pyruvate kinase/lactate dehydrogenase coupled assay; type: biochemical; details: 37° C., pH 7.5
[2] = Prenol phosphorylation, ADP release by pyruvate kinase/lactate dehydrogenase coupled assay; type: biochemical; details: protocol of example 2

B1: B. subtilis: purified His-tagged hydroxyethylthiazole kinase (EC 2.7.1.50) from Bacillus subtilis (protein, UniProt P39593 1-272, looked up)
Hydroxyethylthiazole kinase: MDAQSAAKCLTAVRRHSPLVHSITNNVVTNFTANGLLALGASPVMAYAKEEVADMAKIAGALVLNIGTLSKESVEAMIIAGKSANEHGVPVILDPVGAGATPFRTESARDIIREVRLAAIRGNAAEIAHTVGVTDWLIKGVDAGEGGGDIIRLAQQAAQKLNTVIAITGEVDVIADTSHVYTLHNGHKLLTKVTGAGCLLTSVVGAFCAVEENPLFAAIAAISSYGVAAQLAAQQTADKGPGSFQIELLNKLSTVTEQDVQEWATIERVTVS
modifications: His tag
notes: purified His-tagged hydroxyethylthiazole kinase (EC 2.7.1.50) from Bacillus subtilis
Question: With B1 as the molecule, how does the kcat/KM [1] read?
Answer: 10 M⁻¹ s⁻¹

Question: What about the kcat/KM [2] of the same molecule?
Answer: 2 M⁻¹ s⁻¹
